According to PubChem BioAssay AID493014 (National Center for Advancing Translational Sciences (NCATS), 2011):
The list shows a part of the results. The main result of the screen is listed elsewhere. These columns were measured beside it and carry no call. Most of these compounds were active or inconclusive in the main read-out, so they are no random draw. The note in brackets gives the kind of curve behind each potency; many fits are weak.

Assay: qHTS Assay to Find Inhibitors of Chronic Active B-Cell Receptor Signaling
Details: ABC-DLBCL IkBa-CBG/CBR reporter, luminescence ratio (green luciferase fused to IkBa over red control in TMD8 lymphoma cells), 4 h
Procedure, shortened: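 Compounds up to 46 uM were incubated four hours with TMD8 cells whose green CBG68 luciferase is fused to IkappaBalpha; red CBR luminescence normalised the signal, and concentration-effect curves were fitted to fusion, red and ratio data.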

[1] = measured here: CBR red luminescence, cell number

Structure (SMILES)	AC50 [1]	AC50 (measured here: IkBa-CBG green luminescence)
CCC(Sc1nc2n[nH]c(C)c2c(=N)n1-c1ccc(C)c(Cl)c1)C(=O)N1CCOCC1 (stereo not drawn)	0.651 µM [falling, full curve, poor fit]	–
COc1ccccc1NC(CC(=O)c1ccccc1)C(=O)OCC(=O)c1ccc(C)cc1 (stereo not drawn)	18.4 µM [falling, single point]	–
CCCc1c(C)nc2c(Br)cccc2c1Cl	29.1 µM [rising, single point]	–
COC(=O)[C@@H]1CC[C@H](C)[C@@H](c2ccc(C)cc2)N1C(=O)c1ccc(/C=N/OC[C@@H](O)[C@H]2O[C@@H]3OC(C)(C)O[C@@H]3[C@H]2O)cc1	18.4 µM [falling, single point]	–
CCOC(=O)/C(=N\Nc1cc(Cl)ccc1Cl)N1CCN(CC)CC1	32.6 µM [falling, single point]	–
COc1ccc(C(=O)/C=C/C(=O)N(CC(=O)NC2CCCCC2)CC2CCCO2)c(O)c1 (stereo not drawn)	35.5 µM [falling, single point]	–
COc1ccc(/C=N/NC(=O)CCc2n[nH]c(=O)[nH]c2=O)cc1O	3.26 µM [falling, single point]	–
CC(C)(C)N(Cc1ccccc1)C(=O)CSc1nc2ccccc2c(=O)[nH]1	2.06 µM [falling, full curve, poor fit]	–
COc1ccc(C(=O)NCCNC(C)=O)cc1S(=O)(=O)NCc1ccc(Cl)cc1	29.1 µM [rising, single point]	–
Cc1ccccc1Nc1nc(Nc2ccccc2C)nc(SC2=NCCS2)n1	0.146 µM [rising, full curve, poor fit]	–
C=CCn1c(SCC(=O)c2ccc(O)c(O)c2)nnc1-c1cccc(C)c1	2.06 µM [falling, full curve]	–
CC1CN(C(=O)c2cc(Br)c(Br)s2)CC(C)O1 (stereo not drawn)	5.8 µM [rising, full curve, poor fit]	–
OC[C@H]1O[C@@H](n2cnc3c(NC4CCCC4)ncnc32)[C@H](O)[C@@H]1O	1.46 µM [rising, full curve]	0.708 µM [falling, full curve]
Cc1ccc(N(CC(=O)Nc2ccc(C)cn2)S(=O)(=O)c2c(C)nn(C)c2C)cc1	4.47 µM [falling, partial curve]	–
CCc1ccc(-c2nc(CCl)cs2)cc1	8.2 µM [rising, partial curve]	–
Cc1cc(C)c(C#N)c(SCc2nnc(-c3ccccc3)o2)n1	0.0517 µM [falling, full curve]	–
COc1ccc(NC(=O)C/C(C)=N/NC(=O)c2cccs2)c([N+](=O)[O-])c1	7.94 µM [falling, partial curve]	–

A second format for two compounds above:
Structure (SMILES),AC50 [1],AC50 (measured here: IkBa-CBG green luminescence)
COc1ccc(/C=N/NC(=O)CCc2n[nH]c(=O)[nH]c2=O)cc1O,"3.26 µM [falling, single point]",–
CC(C)(C)N(Cc1ccccc1)C(=O)CSc1nc2ccccc2c(=O)[nH]1,"2.06 µM [falling, full curve, poor fit]",–
